Further values from the same series stand in other lists.
System: CVD (CHD or stroke)
Assay: Meta-analysis of CARE and WOSCOPS combined, synergy index, CVD endpoint
Format: in vivo, human
From the text: Tables 4-5 provide meta-analyses of CARE and WOSCOPS combined (2nd section of each table) for two endpoints (CHD and CVD) and three genetic models (dominant, recessive, and additive), as well as logistic regression analyses of CARE (3rd section of each table) and WOSCOPS (4th section of each table) individually.
Tables 12 and 17 provide results of meta-analysis of the CARE and WOSCOPS sample sets combined by direct genotyping and by imputing genotypes.
“P” indicates the p-value, and “P(R)” (or “P.R.”) indicates the p-value random effect. Both of these are p-values corresponding to a statistical test of whether the combined synergy index is equal to one but use different assumptions to derive the p-value. “P” is calculated using a fixed effects model, and “P(R)” is calculated using a random effects model.
“OR” indicates the odds ratio (synergy index) calculated from a fixed effects model, and “OR(R)” (or “OR.R.”) indicates the odds ratio (synergy index) calculated from a random effects model.

[1] = rs7283476 allele T ADDITIVE Imputed
[2] = rs7283476 allele T DOMINANT Imputed
[3] = rs7295817 allele C GENOTYPIC Imputed
[4] = rs7298255 allele A ADDITIVE Imputed
[5] = rs7298255 allele A DOMINANT Imputed
[6] = rs7305832 allele C GENOTYPIC Imputed
[7] = rs7305832 allele C RECESSIVE Imputed
[8] = rs7331467 allele A GENOTYPIC Imputed
[9] = rs7392620 allele C ADDITIVE Imputed
[10] = rs7446891 allele G DOMINANT Imputed
[11] = rs7448641 allele C ADDITIVE Imputed
[12] = rs7448641 allele C DOMINANT Imputed
[13] = rs7484728 allele T GENOTYPIC Imputed
[14] = rs7499402 allele A ADDITIVE Genotyped
[15] = rs7529851 allele A ADDITIVE Imputed
[16] = rs7529851 allele A GENOTYPIC Imputed
[17] = rs7573951 allele G ADDITIVE Imputed
[18] = rs7599198 allele T DOMINANT Imputed
[19] = rs7600050 allele C ADDITIVE Imputed
[20] = rs7607712 allele T ADDITIVE Imputed

Question: For `CC[C@H](C)C(=O)O[C@H]1C[C@H](O)C=C2C=C[C@H](C)[C@H](CC[C@@H](O)C[C@@H](O)CC(=O)O)[C@H]21` [Pravastatin, pravastatin], which “OR(R)” value (rs7282518 allele T ADDITIVE Imputed) is on record?
Answer: The value was 1.6157.

Question: What about the OR [1] of the same molecule?
Answer: Its OR is 0.4528.

Question: What about the “OR(R)” value [1] of the same molecule?
Answer: The value was 0.4555.

Question: And the OR [2]?
Answer: Its OR is 0.4307.

Question: And the “OR(R)” value [2]?
Answer: Its value is 0.4432.

Question: What about the OR [3] of the same molecule?
Answer: The OR was 0.5763.

Question: And the “OR(R)” value [3]?
Answer: Its value is 0.5838.

Question: And the OR [4]?
Answer: The OR was 0.7441.

Question: What about the “OR(R)” value [4] of the same molecule?
Answer: The value was 0.7441.

Question: What about the OR [5] of the same molecule?
Answer: The OR was 0.6197.

Question: And the “OR(R)” value [5]?
Answer: Its value is 0.6197.

Question: What about the OR [6] of the same molecule?
Answer: The OR was 1.9292.

Question: What about the “OR(R)” value [6] of the same molecule?
Answer: The value was 1.9292.

Question: What about the OR [7] of the same molecule?
Answer: The OR was 2.1109.

Question: What about the “OR(R)” value [7] of the same molecule?
Answer: Its value is 2.0804.

Question: What about the OR [8] of the same molecule?
Answer: The OR was 2.0747.

Question: And the “OR(R)” value [8]?
Answer: Its value is 2.0747.

Question: What about the OR [9] of the same molecule?
Answer: The OR was 0.7677.

Question: What about the “OR(R)” value [9] of the same molecule?
Answer: Its value is 0.7677.

Question: And the OR [10]?
Answer: The OR was 0.6712.

Question: And the “OR(R)” value [10]?
Answer: Its value is 0.6712.

Question: What about the OR [11] of the same molecule?
Answer: The OR was 0.2451.

Question: What about the “OR(R)” value [11] of the same molecule?
Answer: Its value is 0.2451.

Question: And the OR [12]?
Answer: The OR was 0.2509.

Question: What about the “OR(R)” value [12] of the same molecule?
Answer: Its value is 0.2509.

Question: And the OR [13]?
Answer: The OR was 2.0019.

Question: What about the “OR(R)” value [13] of the same molecule?
Answer: Its value is 2.0019.

Question: And the OR [14]?
Answer: The OR was 1.6071.

Question: And the “OR(R)” value [14]?
Answer: Its value is 1.6071.

Question: And the OR [15]?
Answer: Its OR is 0.7475.

Question: And the “OR(R)” value [15]?
Answer: The value was 0.7475.

Question: What about the OR [16] of the same molecule?
Answer: Its OR is 0.5463.

Question: And the “OR(R)” value [16]?
Answer: Its value is 0.5463.

Question: What about the OR [17] of the same molecule?
Answer: The OR was 0.7086.

Question: And the “OR(R)” value [17]?
Answer: Its value is 0.7086.

Question: And the OR [18]?
Answer: The OR was 0.5939.

Question: And the “OR(R)” value [18]?
Answer: The value was 0.5939.

Question: And the OR [19]?
Answer: Its OR is 1.3671.

Question: What about the “OR(R)” value [19] of the same molecule?
Answer: Its value is 1.3671.

Question: And the OR [20]?
Answer: Its OR is 1.452.

Question: What about the “OR(R)” value [20] of the same molecule?
Answer: The value was 1.452.

Question: And the OR (rs9309988 allele G (A1), DOMINANT, Imputed)?
Answer: The OR was 1.9326.

Question: What about the OR (rs9309989 allele C (A1), DOMINANT, Genotyped) of the same molecule?
Answer: Its OR is 1.9491.

Question: What about the OR (rs9310221 allele A (A1), DOMINANT, Imputed) of the same molecule?
Answer: Its OR is 1.86.

Question: And the OR (rs9327555 allele T (A1), DOMINANT, Imputed)?
Answer: Its OR is 0.5753.

Question: And the OR (rs9454967 allele G (A1), ADDITIVE, Imputed)?
Answer: Its OR is 2.1926.

Question: And the OR (rs9454967 allele G (A1), DOMINANT, Imputed)?
Answer: Its OR is 2.4795.

Question: And the OR (rs9471295 allele T (A1), DOMINANT, Imputed)?
Answer: Its OR is 1.5391.

Question: And the OR (rs9477007 allele A (A1), ADDITIVE, Imputed)?
Answer: The OR was 1.429.

Question: What about the OR (rs9477007 allele A (A1), GENOTYPIC, Imputed) of the same molecule?
Answer: Its OR is 2.0759.

Question: And the OR (rs9487279 allele T (A1), DOMINANT, Imputed)?
Answer: The OR was 0.5948.

Question: What about the OR (rs9555973 allele G (A1), ADDITIVE, Imputed) of the same molecule?
Answer: The OR was 0.5479.

Question: And the OR (rs9555973 allele G (A1), DOMINANT, Imputed)?
Answer: The OR was 0.5157.

Question: And the OR (rs9557510 allele G (A1), ADDITIVE, Imputed)?
Answer: Its OR is 1.6102.

Question: What about the OR (rs9557510 allele G (A1), DOMINANT, Imputed) of the same molecule?
Answer: The OR was 1.7706.

Question: What about the OR (rs9560584 allele T (A1), DOMINANT, Imputed) of the same molecule?
Answer: Its OR is 0.512.

Question: What about the OR (rs9588770 allele T (A1), DOMINANT, Imputed) of the same molecule?
Answer: The OR was 0.5187.

Question: And the OR (rs9588848 allele C (A1), ADDITIVE, Imputed)?
Answer: Its OR is 0.5369.

Question: And the OR (rs9588848 allele C (A1), DOMINANT, Imputed)?
Answer: The OR was 0.5009.

Question: What about the OR (rs9812206 allele G (A1), ADDITIVE, Imputed) of the same molecule?
Answer: The OR was 0.4469.

Question: What about the OR (rs9812206 allele G (A1), DOMINANT, Imputed) of the same molecule?
Answer: The OR was 0.4369.

Question: And the OR (rs9813552 allele G (A1), ADDITIVE, Imputed)?
Answer: The OR was 0.4493.

Question: What about the OR (rs9813552 allele G (A1), DOMINANT, Imputed) of the same molecule?
Answer: Its OR is 0.4387.

Question: What about the OR (rs9815037 allele T (A1), ADDITIVE, Imputed) of the same molecule?
Answer: Its OR is 0.4461.

Question: And the OR (rs9815037 allele T (A1), DOMINANT, Imputed)?
Answer: The OR was 0.4354.

Question: What about the OR (rs9825349 allele A (A1), ADDITIVE, Imputed) of the same molecule?
Answer: The OR was 0.4461.

Question: What about the OR (rs9825349 allele A (A1), DOMINANT, Imputed) of the same molecule?
Answer: The OR was 0.4354.

Question: What about the OR (rs9834217 allele T (A1), ADDITIVE, Imputed) of the same molecule?
Answer: Its OR is 0.4466.

Question: And the OR (rs9834217 allele T (A1), DOMINANT, Imputed)?
Answer: Its OR is 0.4359.

Question: And the OR (rs9840460 allele T (A1), ADDITIVE, Imputed)?
Answer: Its OR is 0.4461.

Question: And the OR (rs9840460 allele T (A1), DOMINANT, Imputed)?
Answer: The OR was 0.4354.

Question: What about the OR (rs9840756 allele A (A1), ADDITIVE, Imputed) of the same molecule?
Answer: The OR was 0.4458.

Question: And the OR (rs9840756 allele A (A1), DOMINANT, Imputed)?
Answer: The OR was 0.435.

Question: What about the OR (rs9844801 allele C (A1), DOMINANT, Imputed) of the same molecule?
Answer: The OR was 1.9326.

Question: What about the OR (rs9869187 allele C (A1), ADDITIVE, Imputed) of the same molecule?
Answer: Its OR is 0.4651.

Question: What about the OR (rs9869187 allele C (A1), DOMINANT, Imputed) of the same molecule?
Answer: Its OR is 0.4704.

Question: And the OR (rs9872327 allele T (A1), DOMINANT, Imputed)?
Answer: Its OR is 1.9326.

Question: What about the OR (rs9881685 allele A (A1), ADDITIVE, Imputed) of the same molecule?
Answer: Its OR is 0.4438.

Question: And the OR (rs9881685 allele A (A1), DOMINANT, Imputed)?
Answer: Its OR is 0.4332.

Question: And the OR (rs9909499 allele C (A1), DOMINANT, Imputed)?
Answer: The OR was 1.4669.

Question: What about the OR (rs9911847 allele G (A1), DOMINANT, Imputed) of the same molecule?
Answer: The OR was 0.6755.

Question: What about the OR (rs9946886 allele G (A1), RECESSIVE, Imputed) of the same molecule?
Answer: The OR was 0.3084.

Question: What about the OR (rs9958823 allele A (A1), ADDITIVE, Imputed) of the same molecule?
Answer: The OR was 1.5292.

Question: What about the OR (rs9965248 allele T (A1), ADDITIVE, Imputed) of the same molecule?
Answer: The OR was 1.4965.
